The values below come from paper PMC9561960.

These are yes or no findings as the source states them, for the method shown. In cells and extracts the contact can be indirect. Some entries that bind do so weakly or less than the wild type. Tags and fused reporters may be left off the sequences shown.

This assay addresses SARS-CoV-2 NSP4 containing a Strep-II tag (SARS-CoV-2) (UniProt P0DTD1). The assay is described as follows: co-IP.

B1: BCL2 antagonist/killer (BAK) (protein, UniProt Q16611 1-211)
chain: MASGQGPGPPRQECGEPALPSASEEQVAQDTEEVFRSYVFYRHQQEQEAEGVAAPADPEMVTLPLQPSSTMGQVGRQLAIIGDDINRRYDSEFQTMLQHLQPTAENAYEYFTKIATSLFESGINWGRVVALLGFGYRLALHVYQHGLTGFLGQVTRFVVDFMLHHCIARWIAQRGGWVAALNLGNGPILNVLVVLGVVLLGQFVVRRFFKS
For B1, the binding entry is “binds”.
